Test results reported in patent US20170189507A1, “NOVEL PEPTIDES AND COMBINATION OF PEPTIDES FOR USE IN IMMUNOTHERAPY AGAINST VARIOUS CANCERS” (immatics biotechnologies GmbH, priority 2015, published 2017).

Test system: HLA-A*02-positive cancer and normal tissue samples
Assay: Identification and relative LC-MS quantitation of HLA-A*02-presented tumor-associated peptides on tissue samples (XPRESIDENT)
Design: species or system human
Details: HLA-A*02-binding peptides; examples named in the text for Table 13

## 1 (LLYPEPWSV; listed as Homo sapiens) [compound 1]
  presentation on various cancer entities: glioblastoma, non-small cell lung cancer, and ovarian cancer
